Data source: PubChem BioAssay AID1259254 (NCATS, 2017)
Purpose: 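Finding genes that stop cells copying their DNA twice in one cycle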 (primary screen). System: human HCT116 colorectal cancer cells. Knock-down reagent: single siRNA against human genes. Timing: 3 days. Detection: 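Imaged Hoechst DNA stain sorts each cell into a cycle phase by DNA amount; per plate, G2 fraction set to 0% for non-targeting and 100% for GMNN siRNA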. Reading the numbers: G2 robust z-score: higher = more G2 cells, more excess DNA replication. Call rule: 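An siRNA counts as active if its G2 robust z-score lies at least 5 MADs above the screen median; here such calls match roughly 38% of GMNN control or more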.
Shown is a random part of about 59,000 deposited reagents. About 1,550 of them (2.6%) were called active. 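G2 share is only a proxy for re-replication; each gene was hit by three separate siRNAs, and active genes were retested.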 A number with no mark means an inactive call. The numbers tell different reagents against one gene apart. Not all columns of the deposit are shown. Not stated in the record: the amount of reagent.

G2 robust z-score, by target gene and reagent
KLK14: #1 -1.87; #2 -0.996; #3 -0.261
GCNT4: #1 3.92; #2 -0.954; #3 0.567
NCAPG2: #1 1.28; #2 -0.0335; #3 -0.177
CASC3: #1 -0.123; #2 -0.0187; #3 -0.568
SLC22A14: #1 0.732; #2 -1.02; #3 -0.648
MOB1B: #1 1.69; #2 -0.362; #3 -0.787

Quoted from above (4 entries):
G2 robust z-score, by target gene and reagent
KLK14: #2 -0.996; #3 -0.261
GCNT4: #1 3.92; #2 -0.954

Further results follow.
G2 robust z-score, by target gene and reagent
PEX5L: #1 -0.436; #2 -0.997; #3 0.481
KRABD3: #1 -0.744; #2 -0.402; #3 1.54
DYNC1I1: #1 1.1; #2 -0.369; #3 -0.828
RNF40: #1 0.674; #2 -0.115; #3 0.0654
